Reference: US5563037A, “Homogeneous method for assay of double-stranded nucleic acids using fluorescent dyes and kit useful therein” (Johnson & Johnson Clinical Diagnostics, Inc., priority 1995, dated 1996)

system: double-stranded nucleic acids; assay: KC value (Kp × dye concentration × 2); format: binding; settings: KC = Kp × dye concentration × 2

Compared with `C[n+]1c(C=C2C=CN(CCC[N+](C)(C)C)C=C2)sc2ccccc21` [Compound C], `C[n+]1c(C=C2C=CN(CCC[N+](C)(C)C)c3ccccc32)oc2ccccc21` [Compound E] is higher in “"KC" Value”: 3.2 for the first, 8.2 for the second.

Compared with `C[n+]1c(C=C2C=CN(CCC[N+](C)(C)C)c3ccccc32)sc2ccccc21` [Compound G], `C[n+]1c(C=CC=C2C=CN(CCC[N+](C)(C)C)c3ccccc32)sc2ccccc21` [Compound H] is lower in “"KC" Value”: 20 for the first, 6.2 for the second.

Compared with `CN1/C(=C/c2cc[n+](CCC[N+](C)(C)CCC[N+](C)(C)CCC[n+]3ccc(/C=C4\Sc5ccccc5N4C)c4ccccc43)c3ccccc23)Sc2ccccc21.[I-].[I-].[I-].[I-]` [TOTO-1, reference compound], `C[n+]1c(C=C2C=CN(CCC[N+](C)(C)CCC[N+](C)(C)CCCN3C=CC(=Cc4oc5ccccc5[n+]4C)c4ccccc43)c3ccccc32)oc2ccccc21` [YOYO-1] is lower in “"KC" Value”: 110 for the first, 60 for the second.

For TOTO-3 [reference compound], the “"KC" Value” was 25.
